Paper PMC4077733
No constants are given. Whether binding was seen depends on the method and setting. In cells and extracts the contact can be indirect. Some binding calls cover weakened binding; strength is not graded here. Blank lines part the entries; values can stand above or below the molecule they belong to.

Sequences of proteins named here, by UniProt entry; tags and fusion partners are left off.
UniProt Q01094: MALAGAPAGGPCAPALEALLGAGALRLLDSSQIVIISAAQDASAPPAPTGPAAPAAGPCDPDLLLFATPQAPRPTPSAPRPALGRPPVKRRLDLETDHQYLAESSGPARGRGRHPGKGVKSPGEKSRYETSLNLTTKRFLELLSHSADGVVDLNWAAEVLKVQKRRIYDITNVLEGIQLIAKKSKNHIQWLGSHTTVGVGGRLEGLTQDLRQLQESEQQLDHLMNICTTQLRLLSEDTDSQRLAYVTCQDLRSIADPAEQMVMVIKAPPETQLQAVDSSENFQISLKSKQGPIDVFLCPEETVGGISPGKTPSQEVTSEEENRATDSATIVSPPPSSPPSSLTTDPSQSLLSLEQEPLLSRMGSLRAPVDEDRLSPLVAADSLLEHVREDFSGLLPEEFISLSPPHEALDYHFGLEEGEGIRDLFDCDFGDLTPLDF
UniProt Q16254: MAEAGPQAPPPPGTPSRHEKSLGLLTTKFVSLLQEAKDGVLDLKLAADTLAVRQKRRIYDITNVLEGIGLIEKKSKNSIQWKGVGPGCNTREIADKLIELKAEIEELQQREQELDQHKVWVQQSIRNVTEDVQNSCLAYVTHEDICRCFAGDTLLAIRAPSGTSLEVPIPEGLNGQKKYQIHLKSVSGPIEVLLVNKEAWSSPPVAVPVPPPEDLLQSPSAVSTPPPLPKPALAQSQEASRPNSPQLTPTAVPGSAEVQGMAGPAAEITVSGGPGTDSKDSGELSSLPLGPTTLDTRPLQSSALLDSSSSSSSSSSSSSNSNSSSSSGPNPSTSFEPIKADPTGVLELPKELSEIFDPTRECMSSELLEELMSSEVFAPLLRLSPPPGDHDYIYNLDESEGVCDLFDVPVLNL
UniProt O15379: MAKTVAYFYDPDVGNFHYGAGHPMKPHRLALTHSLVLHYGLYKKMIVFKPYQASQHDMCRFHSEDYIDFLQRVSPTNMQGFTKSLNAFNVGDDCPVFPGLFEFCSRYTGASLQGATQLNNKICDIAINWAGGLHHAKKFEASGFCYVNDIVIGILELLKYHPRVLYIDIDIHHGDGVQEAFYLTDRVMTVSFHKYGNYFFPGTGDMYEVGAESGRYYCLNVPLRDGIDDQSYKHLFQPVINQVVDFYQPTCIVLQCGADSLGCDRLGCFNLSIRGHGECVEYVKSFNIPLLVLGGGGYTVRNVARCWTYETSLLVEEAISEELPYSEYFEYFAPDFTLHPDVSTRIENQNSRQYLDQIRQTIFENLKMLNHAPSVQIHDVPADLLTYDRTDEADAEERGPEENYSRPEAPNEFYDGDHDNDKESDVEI
UniProt Q13547: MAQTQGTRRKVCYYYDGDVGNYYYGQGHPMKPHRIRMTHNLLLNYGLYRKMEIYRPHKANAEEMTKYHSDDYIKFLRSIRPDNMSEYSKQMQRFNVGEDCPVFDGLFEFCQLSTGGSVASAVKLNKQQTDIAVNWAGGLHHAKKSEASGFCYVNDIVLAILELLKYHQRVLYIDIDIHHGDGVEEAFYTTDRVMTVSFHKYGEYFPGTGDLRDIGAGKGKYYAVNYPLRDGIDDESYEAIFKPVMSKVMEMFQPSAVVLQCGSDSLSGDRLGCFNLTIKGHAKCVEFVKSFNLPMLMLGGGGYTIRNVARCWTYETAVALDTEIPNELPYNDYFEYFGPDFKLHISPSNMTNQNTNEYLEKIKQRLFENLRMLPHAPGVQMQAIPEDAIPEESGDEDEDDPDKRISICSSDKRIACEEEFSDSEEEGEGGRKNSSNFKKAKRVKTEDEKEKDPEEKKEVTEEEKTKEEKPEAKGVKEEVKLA

How the values were obtained:
Assay in all cases: co-IP; MDA-MB-231 cell lysates in NP-40 lysis buffer; specific antibodies with protein G agarose beads; western blot; rabbit normal IgG as negative control
[1] = target: T1, Jumonji domain containing 2A (JMJD2A) (human (endogenous in MDA-MB-231)) (UniProt O75164)
T1 sequence: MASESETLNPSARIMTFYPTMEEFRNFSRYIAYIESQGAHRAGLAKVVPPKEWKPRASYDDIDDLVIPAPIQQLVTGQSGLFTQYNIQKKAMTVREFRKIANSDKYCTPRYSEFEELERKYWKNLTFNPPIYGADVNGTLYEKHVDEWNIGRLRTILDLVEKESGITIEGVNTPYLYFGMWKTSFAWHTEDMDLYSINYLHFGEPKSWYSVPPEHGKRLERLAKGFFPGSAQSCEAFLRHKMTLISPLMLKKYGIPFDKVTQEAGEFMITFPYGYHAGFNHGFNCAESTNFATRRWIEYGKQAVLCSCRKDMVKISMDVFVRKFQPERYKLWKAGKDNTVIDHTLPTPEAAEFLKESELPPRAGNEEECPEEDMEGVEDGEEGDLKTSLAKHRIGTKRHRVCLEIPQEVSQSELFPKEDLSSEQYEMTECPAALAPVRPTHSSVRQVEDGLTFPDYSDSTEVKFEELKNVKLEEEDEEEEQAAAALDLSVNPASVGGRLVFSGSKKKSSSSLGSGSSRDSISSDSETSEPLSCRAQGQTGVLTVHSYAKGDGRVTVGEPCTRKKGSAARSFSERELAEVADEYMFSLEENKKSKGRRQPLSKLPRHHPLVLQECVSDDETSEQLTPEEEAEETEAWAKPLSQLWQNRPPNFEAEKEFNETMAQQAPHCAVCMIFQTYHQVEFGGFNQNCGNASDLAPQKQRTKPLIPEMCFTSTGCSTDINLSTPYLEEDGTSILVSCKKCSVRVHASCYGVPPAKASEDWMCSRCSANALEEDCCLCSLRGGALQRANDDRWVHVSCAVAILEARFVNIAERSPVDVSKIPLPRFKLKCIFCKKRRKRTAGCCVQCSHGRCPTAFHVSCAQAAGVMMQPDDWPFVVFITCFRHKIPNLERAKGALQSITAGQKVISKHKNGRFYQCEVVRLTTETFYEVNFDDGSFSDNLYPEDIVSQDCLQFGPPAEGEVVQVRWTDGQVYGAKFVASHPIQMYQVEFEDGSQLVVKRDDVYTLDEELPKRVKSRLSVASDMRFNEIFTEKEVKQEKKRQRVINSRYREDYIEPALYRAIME

[2] = target: E2F1 (human (endogenous in MDA-MB-231)) (UniProt Q01094)
[3] = target: E2F4 (human (endogenous in MDA-MB-231)) (UniProt Q16254)

- binding [1]: binds
Molecule: histone deacetylase (HDAC)3 (from UniProt O15379 1-428)

- binding [1]: binds
Molecule: histone deacetylase (HDAC)1 (from UniProt Q13547 1-482)

- binding [1]: binds
Molecule: E2F4 (from UniProt Q16254 1-413)

- binding [2]: binds
- binding [3]: binds
B1: Jumonji domain containing 2A (JMJD2A) (protein, UniProt O75164-1 1-1064)
chain: T1 sequence
